Results on 42 molecules are retold here after PubChem BioAssay AID493014 (National Center for Advancing Translational Sciences (NCATS), 2011).

Some of the results follow. The main result of the screen is listed elsewhere. These columns were measured beside it and carry no call. Compounds called inactive in the main read-out are mostly missing here. Potencies come from curve fits of mixed quality, noted in brackets.

The AC50 is the concentration giving half of the maximal activity seen.

This experiment is described as follows: qHTS Assay to Find Inhibitors of Chronic Active B-Cell Receptor Signaling. The following applies: ABC-DLBCL IkBa-CBG/CBR reporter, luminescence ratio (green luciferase fused to IkBa over red control in TMD8 lymphoma cells), 4 h; measured here: CBR red luminescence, cell number. In outline:
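TMD8 human ABC-DLBCL cells with doxycycline-inducible IκBα–green luciferase fusion and unfused red luciferase, in 0.5% FBS medium; compounds up to 46 uM, 4 h at 37C. Green/red luminescence ratio, filter-overlap corrected, fitted to concentration-response curves.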
(In general: qHTS replaces the single test concentration by a dilution series.)
On to `O=C(NCC1CCCO1)c1ccc2nc(N3CCCCC3)sc2c1` (configuration not stated), for which the AC50 is 4.61 µM [rising, single point].
On to `COc1ccc(NC(=S)Nc2ccc(OC(F)F)cc2)cn1`, for which the AC50 was 3.98 µM [rising, single point].
Regarding `CCCNC(=O)COC(=O)c1n[nH]c2ccccc12`, the AC50 was 0.794 µM [rising, full curve, poor fit].
As to `Cc1nc(C)c(-c2nnc(-c3ccccc3Cl)o2)cc1C(=O)NN`, the AC50 is 0.398 µM [rising, full curve, poor fit].
Regarding `COC(=O)c1cc2c(N)c(C(=O)c3ccccc3)sc2nc1C(OC)OC`, the concentration at half-maximal activity (AC50) was 6.31 µM [falling, partial curve].
As for `CC(Nc1cc(N2CCN(S(=O)(=O)N(C)C)CC2)ccc1[N+](=O)[O-])c1ccccc1` (configuration not stated), the AC50 is 11.2 µM [rising, partial curve, poor fit].
Consider `COC(=O)c1ccccc1NC1=C/C(=N\S(=O)(=O)c2cccs2)c2ccccc2C1=O`, for which the AC50 was 0.651 µM [falling, full curve].
As to `COc1ccccc1/C=C1\SC(=O)N(CCC(=O)NNC(=O)c2ccccc2Cl)C1=O`, the AC50 was 0.0146 µM [falling, full curve, poor fit].
Consider `CCOC(=O)N1CCC(NCCNC(=O)c2ccc(Cl)cc2)CC1`, for which the AC50 was 29.1 µM [rising, single point].
For the molecule `O=[N+]([O-])c1ccccc1/C=C/C=N/n1c(-c2ccccc2F)n[nH]c1=S`, the AC50 was 7.08 µM [falling, full curve, poor fit].
`Cc1ccc(CCNC(=O)CN2CCN(Cc3ccccc3F)C2=O)cc1`: the AC50 is 29.1 µM [falling, single point].
On to `Cn1nnnc1Sc1ncnc2scc(-c3ccc(-c4ccccc4)cc3)c12`, for which the AC50 is 8.2 µM [falling, partial curve].
The result for `COc1ccc(Oc2ccc(NC(=O)c3ccccc3C)cc2)cc1` reads 2 µM [rising, partial curve, poor fit].
Turning to `COc1ccc(C2C3=C(CCCC3=O)NC3=C2C(=O)c2ccccc23)cc1` (configuration not stated), the AC50 is 14.1 µM [rising, single point].
With `O=C(NCc1ccco1)Nc1ccc2nsnc2c1`, the AC50 was 16.4 µM [falling, partial curve].
`COc1ccccc1N1CCN(C2CCC(C)CC2)CC1` (configuration not stated): the AC50 was 1.26 µM [rising, full curve, poor fit].
For the molecule `COc1ccc(S(=O)(=O)N2CCCCCC2)cc1C(=O)Nc1ccccn1`, the AC50 was 1.26 µM [falling, full curve, poor fit].
The same measure for `OCC1(Cc2ccc(Cl)cc2)CCN(Cc2ccc3nsnc3c2)CC1`: 6.31 µM [falling, single point]; for `NC(=O)CC(NC(=O)c1ccc(Br)cc1)c1ccc(N2CCN(c3ccccc3)CC2)c([N+](=O)[O-])c1` (configuration not stated): 35.5 µM [falling, single point]; for `Cc1ccccc1NCC(=O)N/N=C\c1ccc2c(c1)OCO2`: 31.6 µM [falling, single point].
For the molecule `COc1ccc(CC(=O)O/N=C(\N)Cc2cccc3ccccc23)cc1OC`, the AC50 is 29.1 µM [rising, single point].
For `S=C(c1ccc(-c2ccc(Cl)c(Cl)c2)o1)N1CCOCC1`, the AC50 is 5.8 µM [rising, partial curve, poor fit].
For `CCCc1cc(-c2n[nH]c(=S)n2Cc2ccccc2)cs1`, the AC50 was 7.31 µM [rising, single point].
Turning to `CCOC(=O)N1CCN(c2ncnc3c2[nH]c2ccc(F)cc23)CC1`, the AC50 was 14.1 µM [falling, partial curve, poor fit].
Consider `Cc1ccc(C(=O)NCC(c2cccs2)S(=O)(=O)c2cccs2)cc1C` (configuration not stated), for which the half-maximal activity concentration (AC50) was 22.4 µM [rising, single point].
The result for `Cc1[nH]c2ccccc2c1C(=O)C(=O)NCCC1=CCCCC1` reads 23.1 µM [rising, single point]; that for `Cc1ccc(S(=O)(=O)NC(=O)Nc2ccc(Cl)cn2)cc1`, 8.91 µM [rising, partial curve].
As for `C#CCOc1c(Cl)cc(/C=N/O)cc1OC`, the AC50 is 3.66 µM [rising, partial curve].
Consider `COc1cccc(C(=O)Nc2ccc(C)cc2)c1`, for which the AC50 is 9.2 µM [falling, partial curve, poor fit].
For `Clc1ccc2nc(C3CCN(Cc4nnnn4C4CCCCC4)CC3)[nH]c2c1`, the AC50 is 0.0651 µM [falling, full curve, poor fit].
The same measure for `Cc1ccc(C)c(NC(=S)Nc2ncccc2C)c1`: 17.8 µM [falling, single point]; for `O=C(NC(=S)NNC(=O)[C@H]1C[C@@H]1c1ccccc1)c1cccc(F)c1`: 5.01 µM [rising, full curve, poor fit]; for `COc1ccc(NC(=O)CC2C(=O)N(c3ccc(OC)cc3)C(=O)N2C(C)C)cc1` (configuration not stated): 29.1 µM [rising, single point].
The same measure for `CN(Cc1nc(-c2cccnc2)no1)S(=O)(=O)c1ccccc1`: 0.326 µM [rising, full curve, poor fit]; for `CCOC(=O)C(CC)Sc1nc2c(cnn2-c2ccccc2)c(=O)[nH]1` (configuration not stated): 8.2 µM [rising, partial curve, poor fit]; for `Cc1nn(C)cc1/C=C/C(=O)c1ccccc1`: 16.4 µM [falling, partial curve].
`CCOc1cc(C(=O)Nc2ccc(S(=O)(=O)NC3=NCCCCC3)cc2)cc(Br)c1OC`: the AC50 is 20.6 µM [falling, partial curve, poor fit].
The result for `COc1cc2c(cc1OC)C1=NC(=O)CN1C(SCc1ccc(C)cc1)=N2` reads 10.3 µM [falling, partial curve, poor fit]; that for `COC(=O)CC1Oc2ccc(C)cc2NC1=O` (configuration not stated), 5.8 µM [rising, single point].
As for `Cc1ccc(-c2nc3ccc([N+](=O)[O-])cc3[nH]2)cc1`, the AC50 is 17.8 µM [falling, single point].
As to `O=[N+]([O-])c1cc([N+](=O)[O-])c2oc(-c3ccccc3)c(Br)c2c1O`, the AC50 was 5.62 µM [rising, single point].
For the molecule `COc1ccc(/C(N)=C/C(=O)C(C)(C)C)cc1`, the AC50 is 10 µM [rising, partial curve].
